{"source": "patent US20240173413A1", "about": "“Ultrasound Responsive Nanobubble Compositions and Methods of Production and Use Thereof” (University of Central Florida Research Foundation, lnc., priority 2021, published 2024)", "origin": "cited, not measured here", "system": "patients with postmenopausal osteoporosis", "conditions": "Phase III", "note": "For at least one compound, name, drawing or mass did not settle the structure.", "data": [{"smiles": "CC(C)(F)C[C@H](N[C@@H](c1ccc(-c2ccc(S(C)(=O)=O)cc2)cc1)C(F)(F)F)C(=O)NC1(C#N)CC1", "note": "[Odanacatib]", "values": [{"measurement": "therapeutic efficacy", "value": "high therapeutic efficacy"}]}]}
